Laboratory results taken from paper PMC7324543, “Rapid and sensitive large-scale screening of low affinity extracellular receptor protein interactions by using reaction induced inhibition of Gaussia luciferase” (Scientific Reports, 2020).
No constants are given. Whether binding was seen depends on the method and setting. Some binding calls cover weakened binding; strength is not graded here. Values belong to the binder of their own block, whether it stands above or below them.

Experiments:
[1] = biological target: T1, zebrafish JamC1 ectodomain (zebrafish) (UniProt A3KPA0); assay: ELISA; AVEXIS, Jam benchmark (Fig. 4c): Gaussia luciferase pentamer prey at 100 pM on 1 pmol monomeric mono-biotinylated bait on streptavidin-coated plate; luminescence; both purified
T1 sequence (chain, bait forms, biotin on a specific lysine of the C-terminal BirA acceptor peptide): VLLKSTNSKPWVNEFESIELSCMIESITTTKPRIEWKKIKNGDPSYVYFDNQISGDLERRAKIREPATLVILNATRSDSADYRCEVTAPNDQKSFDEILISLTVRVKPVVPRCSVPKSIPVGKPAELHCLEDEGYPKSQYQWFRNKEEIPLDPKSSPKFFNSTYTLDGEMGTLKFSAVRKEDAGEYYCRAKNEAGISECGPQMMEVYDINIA

[2] = biological target: T1, zebrafish JamC1 ectodomain (zebrafish); assay: ELISA; AVEXIS, Jam benchmark (Fig. 4b): beta-lactamase pentamer prey at 100 pM on 1 pmol monomeric mono-biotinylated bait on streptavidin-coated plate; nitrocefin; both purified
[3] = biological target: T1, zebrafish JamC1 ectodomain (zebrafish); assay: ELISA; AVEXIS, Jam benchmark (Fig. 4d): non-biotinylated Gaussia luciferase pentamer prey at 100 pM on 10 fmoles biotinylated Gaussia luciferase pentamer bait inactivated with excess coelenterazine; luminescence; both purified
[4] = biological target: T1, zebrafish JamC1 ectodomain (zebrafish); assay: ELISA; AVEXIS, Jam benchmark (Fig. 4e): the same biotinylated Gaussia luciferase pentamer preparation as bait (inactivated with coelenterazine, free biotin wash to block remaining sites) and as prey; luminescence; both purified

binding [1]: binds weakly
B1: zebrafish JamC1 ectodomain (domain or fragment, UniProt A3KPA0 24-235)
chain: T1 sequence (chain, bait forms, biotin on a specific lysine of the C-terminal BirA acceptor peptide)
modifications: bait forms: biotin on a specific lysine of the C-terminal BirA acceptor peptide

binding [2]: binds
binding [1]: binds
binding [3]: binds
binding [4]: binds
B2: zebrafish JamB1 ectodomain (domain or fragment, UniProt A0A0R4IGV4 19-226)
chain: VTVSSRNPKVEVHEFSDAELSCEFKTEKDTNPRIEWKRKDKEKDVSFVYYGERFVGPFQDRADIEGATVRLRRVTQADAGEYRCEVSAPSDSISLGETNVTLRVLVPPQTPSCDVPSSALTGSQVELRCRDRHSIPPAVYTWYKDNRALPIRHPNATYTVNEFTGVLIPQSHYNPGTVCQHCMYHPNYHIPNTQLTTTFQTHDLNVAA
modifications: bait forms: biotin on a specific lysine of the C-terminal BirA acceptor peptide
